Measurements as given in US9389182B2 (University of Southern California, priority 2011, dated 2016).

Assay: Particle size of fluorescent degradation products by dialysis of partially digested Hb-AMC
Details: for reduction in fluorescent signal on dialysis: partially trypsin-digested Hb-AMC

Hb-AMC: AMC-labeled hemoglobin, made by reductive labeling with AMC and sodium cyanoborohydride
share of fluorescent products between 500 Da and 5 kDa: 15% | share of fluorescent products smaller than 500 Da: 80% | share of signal from peptides larger than 5 kDa: about 5% | reduction in fluorescent signal on dialysis (1 kDa filter): ≈ 90% | reduction in fluorescent signal on dialysis (5 kDa filter): ≈ 95% | reduction in fluorescent signal on dialysis (500 Da filter): ≈ 80%
